Results are given in words; binding and its absence hold for the method and conditions named. In cells and extracts the contact can be indirect. A result given as binding can be weak or reduced; the word gives no strength. Where a sequence is shown, tags or fusion partners need not be part of it.
Target: T1, FLAG-LRRC4B (UniProt Q9NT99)
T1 sequence: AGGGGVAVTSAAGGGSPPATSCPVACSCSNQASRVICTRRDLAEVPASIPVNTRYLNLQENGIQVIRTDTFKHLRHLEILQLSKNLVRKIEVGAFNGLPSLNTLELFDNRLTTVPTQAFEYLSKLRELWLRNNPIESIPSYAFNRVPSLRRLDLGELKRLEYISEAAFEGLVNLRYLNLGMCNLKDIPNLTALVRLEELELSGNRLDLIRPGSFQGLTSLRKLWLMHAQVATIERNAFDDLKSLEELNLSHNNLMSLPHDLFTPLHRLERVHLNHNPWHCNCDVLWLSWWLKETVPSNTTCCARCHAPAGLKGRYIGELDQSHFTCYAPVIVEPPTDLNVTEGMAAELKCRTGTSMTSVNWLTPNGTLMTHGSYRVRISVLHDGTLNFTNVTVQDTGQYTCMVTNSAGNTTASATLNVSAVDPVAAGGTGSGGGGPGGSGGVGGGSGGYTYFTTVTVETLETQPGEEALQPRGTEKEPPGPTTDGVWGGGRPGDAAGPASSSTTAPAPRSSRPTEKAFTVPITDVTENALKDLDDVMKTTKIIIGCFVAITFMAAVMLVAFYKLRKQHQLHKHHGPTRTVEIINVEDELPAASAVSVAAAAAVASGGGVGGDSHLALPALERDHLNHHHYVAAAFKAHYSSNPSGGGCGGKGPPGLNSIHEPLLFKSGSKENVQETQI
Assay: co-IP; HEK293 cells transfected with FAM19A5 (WT or MT) and FLAG-LRRC4B plasmids; lysis in 20 mM Tris-HCl pH 7.4, 150 mM NaCl, 0.5% NP40; Protein G Dynabeads pre-incubated with antibodies (not named), overnight 4°C; washes with 300 mM NaCl

- binding: binds
Substance: wild-type (WT) FAM19A5
